Test results as given in patent publication US11464840B2, “Universal non-classical MHC I vaccines: HLA-E-restricted antigenic peptides as universal vaccines to treat allergy, inflammation, autoimmune and infectious diseases, and cancers” (priority 2019, dated 2022).
No constants are given. Whether binding was seen depends on the method and setting. Some binding calls cover weakened binding; strength is not graded here.

Sequences of proteins named here, by UniProt entry; tags and fusion partners are left off. Residues count along the entry.
UniProt P13747, residues 22-295: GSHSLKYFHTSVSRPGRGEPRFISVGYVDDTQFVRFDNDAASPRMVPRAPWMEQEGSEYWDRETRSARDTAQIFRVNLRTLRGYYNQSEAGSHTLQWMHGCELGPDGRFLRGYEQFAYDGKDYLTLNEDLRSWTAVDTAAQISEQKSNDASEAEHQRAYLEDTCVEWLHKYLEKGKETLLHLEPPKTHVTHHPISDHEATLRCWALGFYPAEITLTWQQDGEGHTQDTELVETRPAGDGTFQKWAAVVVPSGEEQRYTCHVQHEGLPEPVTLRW

Molecular target: denatured recombinant HLA-E (HLA-E single protein, heavy chain alone, expressed in BL21 E. coli) (human) (UniProt P13747)
Assay: ELISA: anti-HLA-E capture, HRP-avidin detection of biotinylated peptide; HLA-E heavy chain alone as the reference

B1: biotinylated HLA-A2 leader peptide (SEQ ID NO: 50, …) (peptide)
peptide: NPRKVTAYL
modifications: biotinylated (position not given)
  binding: binds
